Reference: PubChem BioAssay AID1259405 (NCATS, 2018)

- Assay: 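Silenced genes that increase secreted GFP made by CHO cells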 (primary screen)
- System: Chinese hamster CHO-K1 ovary cells with stable secreted eGFP expression
- Knock-down reagent: single siRNA against mouse genes, 0.8 pmol siRNA per well (2 µl of 400 nM stock)
- Time to read-out: 3 days
- Read-out: 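Percent of the per-plate non-targeting control median for intracellular GFP per well by laser scanning cytometry and for cell viability by ATP luminescence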
- Direction: GFP, % of control: higher = more GFP per well, higher productivity; viability (ATP), % of control: higher = more viable cells (more ATP)
- Active means: 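a knock-down is called active if GFP reaches 120% or more of non-targeting control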
Shown is a random part of about 50,000 reagents tested. Of all reagents, about 4,000 (8%) are marked active. 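Mouse siRNA library applied to hamster cells; one well for each siRNA.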 The numbers tell different reagents against one gene apart.

After knock-down of Snip1 (Smad nuclear interacting protein 1) #1, the screen gave GFP, % of control 88.8; viability (ATP), % of control 63.3; inactive.
Knock-down of Snip1 (Smad nuclear interacting protein 1) #2 resulted in: GFP, % of control 94.2; viability (ATP), % of control 74.9; inactive.
With knock-down of Snip1 (Smad nuclear interacting protein 1) #3, the screen gave GFP, % of control 50.7; viability (ATP), % of control 50.4; inactive.
After knock-down of Grm7 (glutamate receptor, metabotropic 7) #1 the results were GFP, % of control 69.2; viability (ATP), % of control 79.2; inactive.
After knock-down of Grm7 (glutamate receptor, metabotropic 7) #2 the results were GFP, % of control 117; viability (ATP), % of control 85.8; inactive.
After knock-down of Grm7 (glutamate receptor, metabotropic 7) #3, the screen gave GFP, % of control 77.6; viability (ATP), % of control 69.9; inactive.
Knock-down of F630111L10Rik (RIKEN cDNA F630111L10 gene) #1 gave: GFP, % of control 71.1; viability (ATP), % of control 81.2; inactive.
Against F630111L10Rik (RIKEN cDNA F630111L10 gene) #2, the values are GFP, % of control 59; viability (ATP), % of control 63.9; inactive.
Against F630111L10Rik (RIKEN cDNA F630111L10 gene) #3, the entry reads GFP, % of control 146; viability (ATP), % of control 61.2; active.
Silencing of 1700034H15Rik (RIKEN cDNA 1700034H15 gene) #1 came out at: GFP, % of control 69.6; viability (ATP), % of control 69.2; inactive.
1700034H15Rik (RIKEN cDNA 1700034H15 gene) #2 showed GFP, % of control 49.2; viability (ATP), % of control 55.5; inactive.
Silencing of 1700034H15Rik (RIKEN cDNA 1700034H15 gene) #3 resulted in: GFP, % of control 60.5; viability (ATP), % of control 76.8; inactive.
Blnk (B cell linker) #1 scored GFP, % of control 43.2; viability (ATP), % of control 31.5; inactive.
For Blnk (B cell linker) #2, the entry reads GFP, % of control 61.3; viability (ATP), % of control 72.4; inactive.
With knock-down of Blnk (B cell linker) #3 the results were GFP, % of control 70.8; viability (ATP), % of control 58.9; inactive.

3 entries from above, reduced to “GFP, % of control”:
Grm7 (glutamate receptor, metabotropic 7) #1: 69.2
Grm7 (glutamate receptor, metabotropic 7) #2: 117
Grm7 (glutamate receptor, metabotropic 7) #3: 77.6

Additional records follow.
For Fkbp1b (FK506 binding protein 1b) #1, the values are GFP, % of control 122; viability (ATP), % of control 119; active.
For Fkbp1b (FK506 binding protein 1b) #2, the values are GFP, % of control 75.8; viability (ATP), % of control 71.6; inactive.
Knock-down of Fkbp1b (FK506 binding protein 1b) #3 resulted in: GFP, % of control 110; viability (ATP), % of control 90.5; inactive.
After knock-down of Gnptg (N-acetylglucosamine-1-phosphotransferase, gamma subunit) #1 the results were GFP, % of control 110; viability (ATP), % of control 107; inactive.
For Gnptg (N-acetylglucosamine-1-phosphotransferase, gamma subunit) #2, the values are GFP, % of control 95.3; viability (ATP), % of control 124; inactive.
Gnptg (N-acetylglucosamine-1-phosphotransferase, gamma subunit) #3 gave GFP, % of control 135; viability (ATP), % of control 109; active.
Ccdc172 (coiled-coil domain containing 172) #1 showed GFP, % of control 83; viability (ATP), % of control 80; inactive.
Depletion of Ccdc172 (coiled-coil domain containing 172) #2 resulted in: GFP, % of control 80.9; viability (ATP), % of control 105; inactive.
After knock-down of Ccdc172 (coiled-coil domain containing 172) #3, the screen gave GFP, % of control 93.9; viability (ATP), % of control 92.7; inactive.
With knock-down of Washc3 (WASH complex subunit 3) #1, the record shows GFP, % of control 82.2; viability (ATP), % of control 74.8; inactive.
For Washc3 (WASH complex subunit 3) #2, the values are GFP, % of control 69.9; viability (ATP), % of control 68.1; inactive.
With knock-down of Washc3 (WASH complex subunit 3) #3, the record shows GFP, % of control 78.5; viability (ATP), % of control 75.5; inactive.
After knock-down of Noto (notochord homeobox) #1, the record shows GFP, % of control 102; viability (ATP), % of control 59.2; inactive.
With knock-down of Noto (notochord homeobox) #2, the record shows GFP, % of control 56.6; viability (ATP), % of control 86.7; inactive.
For Zfp219 (zinc finger protein 219) #1, the entry reads GFP, % of control 99.9; viability (ATP), % of control 129; inactive.
With knock-down of Zfp219 (zinc finger protein 219) #2, the record shows GFP, % of control 57.3; viability (ATP), % of control 79.1; inactive.
Knock-down of Zfp219 (zinc finger protein 219) #3 resulted in: GFP, % of control 80; viability (ATP), % of control 89.2; inactive.
Crtac1 (cartilage acidic protein 1) #1 showed GFP, % of control 115; viability (ATP), % of control 96.6; inactive.
Knock-down of Crtac1 (cartilage acidic protein 1) #2 gave: GFP, % of control 48.7; viability (ATP), % of control 49.1; inactive.
Silencing of Slc25a38 #1 came out at: GFP, % of control 102; viability (ATP), % of control 125; inactive.
After knock-down of Slc25a38 #2, the screen gave GFP, % of control 90.7; viability (ATP), % of control 69.3; inactive.
With knock-down of Slc25a38 #3, the screen gave GFP, % of control 74.9; viability (ATP), % of control 98.2; inactive.
Silencing of Or1e29 (olfactory receptor family 1 subfamily E member 29) #1 resulted in: GFP, % of control 40.8; viability (ATP), % of control 49.9; inactive.
Or1e29 (olfactory receptor family 1 subfamily E member 29) #2 gave GFP, % of control 101; viability (ATP), % of control 94.4; inactive.
Or1e29 (olfactory receptor family 1 subfamily E member 29) #3 showed GFP, % of control 77.8; viability (ATP), % of control 87.5; inactive.
